According to patent US20220411532A1 (GUNDERSEN LUTHERAN MEDICAL FOUNDATION, published 2022):
No constants are given. Whether binding was seen depends on the method and setting. Some results given as binding are weak or reduced against the parent protein; the word gives no strength.

T1: peptide representing the neo-epitope of the cell membrane-bound ADAM17-cleavage product of human AREG (human)
T1 sequence (peptide): THSMIDSSLSKI


What was measured:
[1] = molecular target: T1, peptide representing the neo-epitope of the cell membrane-bound ADAM17-cleavage product of human AREG (human); experiment: ELISA on peptides, rabbit IgG
[2] = molecular target: T1, peptide representing the neo-epitope of the cell membrane-bound ADAM17-cleavage product of human AREG (human); experiment: ELISA, plate coated with 5 µg/mL cleaved-AREG peptide, antibody 0.001-1 µg/mL

Row | binding [1] | binding [2] | Binder
1 | binds | – | GMF-3E4 rabbit monoclonal IgG antibody (antibody, V domains shown) VH: QSVKESEGRLVTPGTPLTLTCTVSGFSLSDYWMSWVRQAPGKGLEWIGIAGYSDNTYYASRAKGRFTISKTSTTVVLKITRPTTEDTATYFCVRDLYGVYSSGTTLWGPGTLVTVSS VL: ELVMTQTPSPVSAAVGGTVTISCQSSQSVYNNNRLAWFQQKPGQPPKLLIYYASTLASGVSSRFKGSGSGTQFTLIISDVVCDDAATYYCQGYYSGGITGFGGGTEVVVK
2 | binds | binds | GMF-1A3 rabbit monoclonal IgG antibody (antibody, V domains shown, also called anti-cleaved-AREG 1A3 antibody; unconjugated 1A3) VH: QSVKESEGRLVTPGTPLRLTCTVAGYSLSRYHMCWVRQAPGKGLEWIGMIGGSGRTDYASWAKGRFTISKTSTTVDLKITSPTTEDTATYFCSTVYTDSDGDFWGPGTLVTVSS VL: ELDMTQTPSSKSVPVGGTVTINCQASESVYSNDRLAWFQQKPGQPPKLLIYYASTLASGVPSRFKGSGSGTQFTLTISDLECADAATYYCQSCYDMSSYGVAFGGGTELEIL
